A unit is not stated for every read-out.
Legend:
[1] = Serum ethanolamine phospholipid levels in human cohorts (dementia severity, post-mortem pathology, age) by flow-injection MS/MS
[2] = Serum ethanolamine phospholipid ratios to PtdEt 16:0/18:0 (M01) in human cohorts
[3] = serum, females, post mortem SDAT
[4] = serum, females, post mortem control

For `CCCCCC=CCC=CCC=CCC=CCCCCCC(=O)OC(COC=CCCCCCCCCCCCCCCCC)COP(=O)(O)OCCN` (centres unmarked) [Metabolite M23, Plasmenyl 18:0/22:4], the “Ratio of serum levels” value ([1]; AD, All to CN, Male) was 0.801, the “Ratio of serum levels” value ([1]; ADAS 5-19 to CN, Male) was 0.857 and the “Ratio of serum levels” value ([1]; ADAS 20-39 to 5-19, Male) was 0.906. The “Ratio of serum levels” value ([1]; ADAS 20-39 to CN, Male) was 0.776, the “Ratio of serum levels” value ([1]; ADAS 40-70 to 5-19, Male) was 0.844 and the “Ratio of serum levels” value ([1]; ADAS 40-70 to 20-39, Male) was 0.931. For the same molecule, the “Ratio of serum levels” value ([1]; ADAS 40-70 to CN, Male) was 0.723, the “Serum level, Mean” value ([1]; Cognitive Normal, Female) was 0.018 and the “Average serum level, Mean” value ([1]; Cognitive Normal, Male) was 0.018. For the same molecule, the “Serum level, Mean” value ([1]; Post Mortem Ctl, Male) was 0.009, the “Serum level, Mean” value ([1]; Post Mortem SDAT Male) was 0.005 and the “Ratio of serum levels” value ([1]; Post mortem SDAT vs Control, Male) was 0.565. The “Serum level, Mean” value ([1]; SDAT, ADAS 5-19, Female) was 0.015, the “Average serum level, Mean” value ([1]; SDAT, ADAS 5-19, Male) was 0.016 and the “Serum level, Mean” value ([1]; SDAT, ADAS 20-39, Female) was 0.014. For the same molecule, the “Average serum level, Mean” value ([1]; SDAT, ADAS 20-39, Male) was 0.014, the “Serum level, Mean” value ([1]; SDAT, ADAS 40-70, Female) was 0.013 and the “Average serum level, Mean” value ([1]; SDAT, ADAS 40-70, Male) was 0.013. The “Serum level, Mean” value ([1]; SDAT_all, Female) was 0.014, the “Average serum level, Mean” value ([1]; SDAT_all, Male) was 0.015 and the “Ratio, ADAS 5-19 to CN, Female” value ([1]; serum level ratio, females, ADAS 5-19 vs CN) was 0.809. The “Ratio, ADAS 20-39 to 5-19, Female” value ([1]; serum level ratio, females, ADAS 20-39 vs ADAS 5-19) was 0.975, the “Ratio, ADAS 20-39 to CN, Female” value ([1]; serum level ratio, females, ADAS 20-39 vs CN) was 0.789 and the “Ratio, ADAS 40-70 to 5-19, Female” value ([1]; serum level ratio, females, ADAS 40-70 vs ADAS 5-19) was 0.864. For the same molecule, the “Ratio, ADAS 40-70 to 20-39, Female” value ([1]; serum level ratio, females, ADAS 40-70 vs ADAS 20-39) was 0.886, the “Ratio, ADAS 40-70 to CN, Female” value ([1]; serum level ratio, females, ADAS 40-70 vs CN) was 0.699 and the “Ratio, 50-59 vs. 40-49, Female” value ([1]; serum level ratio, females, age 50-59 vs 40-49) was 0.797. The “Ratio, 60-69 vs. 40-49, Female” value ([1]; serum level ratio, females, age 60-69 vs 40-49) was 0.663, the “Ratio, 70+ vs. 40-49, Female” value ([1]; serum level ratio, females, age 70+ vs 40-49) was 0.776 and the “Ratio, AD, All to CN, Female” value ([1]; serum level ratio, females, all AD vs cognitively normal) was 0.764. For the same molecule, the “Ratio, Autopsy AD vs. Control, Female” value ([1]; serum level ratio, females, autopsy AD vs control) was 0.560, the “Ratio, 50-59 vs. 40-49, Male” value ([1]; serum level ratio, males, age 50-59 vs 40-49) was 1.008 and the “Ratio, 60-69 vs. 40-49, Male” value ([1]; serum level ratio, males, age 60-69 vs 40-49) was 1.066. The “Ratio, 70+ vs. 40-49, Male” value ([1]; serum level ratio, males, age 70+ vs 40-49) was 0.900, the “Mean serum level, Age Ctl, 30-39, Female” value ([1]; serum, females, age 30-39) was 0.021 and the “Mean serum level, Age Ctl, 40-49, Female” value ([1]; serum, females, age 40-49) was 0.022. For the same molecule, the “Mean serum level, Age Ctl, 50-59, Female” value ([1]; serum, females, age 50-59) was 0.017, the “Mean serum level, Age Ctl, 60-69, Female” value ([1]; serum, females, age 60-69) was 0.015 and the “Mean serum level, Age Ctl, 70+, Female” value ([1]; serum, females, age 70+) was 0.017. The “Mean serum level, Post Mortem SDAT, Female” value [1, 3] was 0.007, the “Mean serum level, Post Mortem Ctl, Female” value [1, 4] was 0.012 and the “Mean serum level, Age Ctl, 30-39, Male” value ([1]; serum, males, age 30-39) was 0.022. For the same molecule, the “Mean serum level, Age Ctl, 40-49, Male” value ([1]; serum, males, age 40-49) was 0.019, the “Mean serum level, Age Ctl, 50-59, Male” value ([1]; serum, males, age 50-59) was 0.019 and the “Mean serum level, Age Ctl, 60-69, Male” value ([1]; serum, males, age 60-69) was 0.020. The “Mean serum level, Age Ctl, 70+, Male” value ([1]; serum, males, age 70+) was 0.017, the “Ratio of ethanolamine phospholipid ratios to M01 between cohorts” value (“Ratio … to M01 between cohorts” below) ([2]; AD, All to CN, Male) was 0.763 and the “Ratio … to M01 between cohorts” value ([2]; ADAS 5-19 to CN, Male) was 0.810. For the same molecule, the “Ratio … to M01 between cohorts” value ([2]; ADAS 20-39 to CN, Male) was 0.754, the “Ratio … to M01 between cohorts” value ([2]; ADAS 40-70 to CN, Male) was 0.696 and the “Average serum ethanolamine phospholipid ratio to M01, Mean” value ([2]; Cognitive Normal, Male, serum) was 0.164. The “Average serum ethanolamine phospholipid ratio to M01, Mean” value ([2]; SDAT, ADAS 5-19, Male, serum) was 0.133, the “Average serum ethanolamine phospholipid ratio to M01, Mean” value ([2]; SDAT, ADAS 20-39, Male, serum) was 0.124 and the “Average serum ethanolamine phospholipid ratio to M01, Mean” value ([2]; SDAT, ADAS 40-70, Male, serum) was 0.114. The “Average serum ethanolamine phospholipid ratio to M01, Mean” value ([2]; SDAT_all, Male, serum) was 0.125, the “Ethanolamine Phospholipid Ratio to M01, Mean, Age Ctl, 30-39, Female” value ([2]; human serum, females aged 30-39) was 0.198 and the “Ethanolamine Phospholipid Ratio to M01, Mean, Age Ctl, 40-49, Female” value ([2]; human serum, females aged 40-49) was 0.202. The “Ethanolamine Phospholipid Ratio to M01, Mean, Age Ctl, 50-59, Female” value ([2]; human serum, females aged 50-59) was 0.177, the “Ratio of Ethanolamine Phospholipid Ratio to M01, 50-59 vs. 40-49, Female” value ([2]; human serum, females aged 50-59 vs. females aged 40-49) was 0.876 and the “Ethanolamine Phospholipid Ratio to M01, Mean, Age Ctl, 60-69, Female” value ([2]; human serum, females aged 60-69) was 0.124. For the same molecule, the “Ratio of Ethanolamine Phospholipid Ratio to M01, 60-69 vs. 40-49, Female” value ([2]; human serum, females aged 60-69 vs. females aged 40-49) was 0.614, the “Ethanolamine Phospholipid Ratio to M01, Mean, Age Ctl, 70+_Female” value ([2]; human serum, females aged 70+) was 0.140 and the “Ratio of Ethanolamine Phospholipid Ratio to M01, 70+ vs. 40-49, Female” value ([2]; human serum, females aged 70+ vs. females aged 40-49) was 0.696. For the same molecule, the “Ratio of Ethanolamine Phospholipid Ratio to M01, 50-59 vs. 40-49, Male” value ([2]; human serum, males aged 50-59 vs. males aged 40-49) was 1.016, the “Ratio of Ethanolamine Phospholipid Ratio to M01, 60-69 vs. 40-49, Male” value ([2]; human serum, males aged 60-69 vs. males aged 40-49) was 0.858 and the “Ratio of Ethanolamine Phospholipid Ratio to M01, 70+ vs. 40-49, Male” value ([2]; human serum, males aged 70+ vs. males aged 40-49) was 0.759. For the same molecule, the “Ratio of ethanolamine phospholipid ratio to M01, ADAS 5-19 to CN, Female” value ([2]; serum, females, ADAS 5-19 vs cognitive normal) was 0.877, the “Ratio of ethanolamine phospholipid ratio to M01, ADAS 20-39 to 5-19, Female” value ([2]; serum, females, ADAS 20-39 vs ADAS 5-19) was 0.948 and the “Ratio of ethanolamine phospholipid ratio to M01, ADAS 20-39 to CN, Female” value ([2]; serum, females, ADAS 20-39 vs cognitive normal) was 0.831. For the same molecule, the “Ratio of ethanolamine phospholipid ratio to M01, ADAS 40-70 to 5-19, Female” value ([2]; serum, females, ADAS 40-70 vs ADAS 5-19) was 0.806, the “Ratio of ethanolamine phospholipid ratio to M01, ADAS 40-70 to 20-39, Female” value ([2]; serum, females, ADAS 40-70 vs ADAS 20-39) was 0.851 and the “Ratio of ethanolamine phospholipid ratio to M01, ADAS 40-70 to CN, Female” value ([2]; serum, females, ADAS 40-70 vs cognitive normal) was 0.707. The “Ethanolamine phospholipid ratio to M01, Mean, SDAT, ADAS 5-19, Female” value ([2]; serum, females, SDAT ADAS 5-19) was 0.139, the “Ethanolamine phospholipid ratio to M01, Mean, SDAT, ADAS 20-39, Female” value ([2]; serum, females, SDAT ADAS 20-39) was 0.131 and the “Ethanolamine phospholipid ratio to M01, Mean, SDAT, ADAS 40-70, Female” value ([2]; serum, females, SDAT ADAS 40-70) was 0.112. For the same molecule, the “Ratio of ethanolamine phospholipid ratio to M01, AD, All to CN, Female” value ([2]; serum, females, all AD vs cognitive normal) was 0.801, the “Ethanolamine phospholipid ratio to M01, Mean, SDAT_all Female” value ([2]; serum, females, all SDAT) was 0.127 and the “Ratio of ethanolamine phospholipid ratio to M01, Autopsy AD vs. Control, Female” value ([2]; serum, females, autopsy AD vs post mortem control) was 0.816. The “Ethanolamine phospholipid ratio to M01, Mean, Cognitive Normal, Female” value ([2]; serum, females, cognitive normal) was 0.158, the “Ethanolamine phospholipid ratio to M01, Mean, Post Mortem SDAT Female” value [2, 3] was 0.060 and the “Ethanolamine phospholipid ratio to M01, Mean, Post Mortem Ctl, Female” value [2, 4] was 0.073. For the same molecule, the “Ratio of ethanolamine phospholipid ratio to M01, ADAS 20-39 to 5-19, Male” value ([2]; serum, males, SDAT ADAS 20-39 vs ADAS 5-19) was 0.931, the “Ratio of ethanolamine phospholipid ratio to M01, ADAS 40-70 to 5-19, Male” value ([2]; serum, males, SDAT ADAS 40-70 vs ADAS 5-19) was 0.860 and the “Ratio of ethanolamine phospholipid ratio to M01, ADAS 40-70 to 20-39, Male” value ([2]; serum, males, SDAT ADAS 40-70 vs ADAS 20-39) was 0.923. For the same molecule, the “Ethanolamine phospholipid ratio to M01, Mean, Age Ctl, 30-39, Male” value ([2]; serum, males, age control 30-39) was 0.189, the “Ethanolamine phospholipid ratio to M01, Mean, Age Ctl, 40-49, Male” value ([2]; serum, males, age control 40-49) was 0.175 and the “Ethanolamine phospholipid ratio to M01, Mean, Age Ctl, 50-59, Male” value ([2]; serum, males, age control 50-59) was 0.178. The “Ethanolamine phospholipid ratio to M01, Mean, Age Ctl, 60-69, Male” value ([2]; serum, males, age control 60-69) was 0.150, the “Ethanolamine phospholipid ratio to M01, Mean, Age Ctl, 70+_Male” value ([2]; serum, males, age control 70+) was 0.133 and the “Ethanolamine phospholipid ratio to M01, Mean, Post Mortem SDAT Male” value ([2]; serum, males, post mortem SDAT) was 0.055. The “Ratio of ethanolamine phospholipid ratio to M01, SDAT vs Control (post mortem, males)” value ([2]; serum, males, post mortem SDAT vs post mortem control) was 0.750 and the “Ethanolamine phospholipid ratio to M01, Mean, Post Mortem Ctl, Male” value ([2]; serum, males, post mortem control) was 0.074.

— patent publication US9517222B2, “Method for the treatment of senile dementia of the Alzheimer's type” (Phenomenome Discoveries Inc., priority 2007, dated 2016)
